# These are yes or no findings as the source states them, for the method shown. Binding can be weak; no strength is given. Tags and fused reporters may be left off the sequences shown.
# By UniProt entry, the sequences of proteins in these tests, tags left out. Where a name states a change or a piece, a line headed by the entry shows the natural chain unless it says otherwise.
# UniProt O82277: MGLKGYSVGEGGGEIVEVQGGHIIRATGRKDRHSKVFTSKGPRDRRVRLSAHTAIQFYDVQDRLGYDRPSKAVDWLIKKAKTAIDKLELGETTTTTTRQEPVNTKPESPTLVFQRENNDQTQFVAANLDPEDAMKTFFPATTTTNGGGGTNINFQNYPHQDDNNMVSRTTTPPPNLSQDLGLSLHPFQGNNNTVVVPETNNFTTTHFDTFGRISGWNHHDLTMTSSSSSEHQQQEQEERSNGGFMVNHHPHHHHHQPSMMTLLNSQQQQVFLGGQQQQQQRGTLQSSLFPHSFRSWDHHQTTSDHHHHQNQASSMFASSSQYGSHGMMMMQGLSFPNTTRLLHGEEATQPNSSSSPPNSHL
# Target: T1, BD-COP1 (Arabidopsis) (UniProt P43254)
# T1 sequence: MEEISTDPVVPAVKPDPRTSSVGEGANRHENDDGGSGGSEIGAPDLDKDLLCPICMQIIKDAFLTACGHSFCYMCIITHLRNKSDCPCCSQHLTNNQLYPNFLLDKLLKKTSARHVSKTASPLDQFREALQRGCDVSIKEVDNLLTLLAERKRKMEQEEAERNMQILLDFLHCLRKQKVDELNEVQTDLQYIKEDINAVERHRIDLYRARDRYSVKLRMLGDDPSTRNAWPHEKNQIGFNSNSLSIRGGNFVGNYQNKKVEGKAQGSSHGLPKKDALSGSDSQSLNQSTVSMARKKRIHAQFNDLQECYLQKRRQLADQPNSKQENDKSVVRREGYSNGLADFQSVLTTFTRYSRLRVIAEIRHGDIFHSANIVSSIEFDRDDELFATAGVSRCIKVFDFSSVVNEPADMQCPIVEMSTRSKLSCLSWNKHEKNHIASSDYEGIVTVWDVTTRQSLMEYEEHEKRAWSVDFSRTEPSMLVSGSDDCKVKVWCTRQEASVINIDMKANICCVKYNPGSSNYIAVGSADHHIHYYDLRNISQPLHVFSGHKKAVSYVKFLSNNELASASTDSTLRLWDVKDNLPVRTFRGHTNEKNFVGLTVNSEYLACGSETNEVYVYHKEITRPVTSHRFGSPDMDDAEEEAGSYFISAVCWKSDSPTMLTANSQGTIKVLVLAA
# Assay: two-hybrid; Y2H, quantified read-out with SD of three independent biological replicates (Fig. 2B, E, F); BD-COP1 or its mutants with AD fusions
substance,measurement,value
AD-TCP10VPAA (from UniProt O82277),binding,binds

# From publication PMC12107181 (2025)
